In patent publication US20080227694A1 one finds binding data, which are given here for two molecules.

These are yes or no findings as the source states them, for the method shown. In cells and extracts the contact can be indirect. These calls come from enrichment with a bait or labelling near it, and not all partners need be listed. Sequences can lack the tags named with a protein.

This experiment has as its target proteasome (protein group which composes the proteasome). As to the kind of experiment: anti-FLAG immunoprecipitation from transfected HEK293T cells, partner identified by tandem mass spectrometry.

B1: FLAG-tagged AWP1 (recombinant AWP1 with N-terminal FLAG recognition sequence, expressed in HEK293T cells) (protein)
chain: MDYKDDDDKAQETNHSQVPMLCSTGCGFYGNPRTNGMCSVCYKEHLQRQNSSNGRISPPATSVSSLSESLPVQCTDGSVPEAQSALDSTSSSMQPSPVSNQSLLSESVASSQLDSTSVDKAVPETEDVQASVSDTAQQPSEEQSKSLEKPKQKKNRCFMCRKKVGLTGFECRCGNVYCGVHRYSDVHNCSYNYKADAAEKIRKENPVVVGEKIQKI
Consider B1, for which the binding entry was “binds”.

B2: FLAG-tagged ZNF216 (recombinant ZNF216 with N-terminal FLAG recognition sequence, expressed in HEK293T cells) (protein)
chain: MDYKDDDDKAQETNQTPGPMLCSTGCGFYGNPRTNGMCSVCYKEHLQRQQNSGRMSPMGTASGSNSPTSDSASVQRADTSLNNCEGAAGSTSEKSRNVPVAALPVTQQMTEMSISREDKITTPKTEVSEPVVTQPSPSVSQPSTSQSEEKAPELPKPKKNRCFMCRKKVGLTGFDCRCGNLFCGLHRYSDKHNCPYDYKAEAAAKIRKENPVVVAEKIQRI
As for B2, the binding entry is reported as “binds”.
